Results published in patent US7259004B1, “Endophytic streptomycetes from higher plants with biological activity” (Montana State University, priority 2002, dated 2007).
Some of these results come from one statement about several compounds together.

System: Human Cervical Cancer Epithelial ME180
Assay: CellTiter 96 Aqueous Non-Radioactive Cell Proliferation Assay
Format: cell-based
Conditions: 48 hours; Table 7
Description: The munumbicins were then tested against three human cancer cell lines (ATCC) and human primary mammary epithelial cells (HMECs) (Clonetics; Biowhittaker, Walkersville, Md.) using a CellTiter 96® Aqueous Non-Radioactive Cell Proliferation Assay kit from Promega (Madison, Wis.). The cell lines were A-549 (lung epithelial carcinoma, ATCC CCL-185), ME-180 (cervical epithelial epidermoid carcinoma, ATCC HTB-33), and BT-20 (breast epithelial cancer, ATCC HTB-19), and were grown in the media recommended by ATCC. The primary mammary cells were cultured as recommended by the manufacturer in mammary epithelial cell growth media (MEGM®). […] After seeding, the cells were incubated for five hours at 37° C. before addition of the munumbicins. Two-fold serial dilutions of the munumbicins were made in the culture medium, and a volume equal to that of the seeded cells for each dilution was added to three wells of cells. Each plate also contained some wells with cells plus medium only and some wells with medium only. […] The A-549 and ME-180 cells were incubated for 48 hours. […] The plates were incubated at 37° C. for one to four hours, and the OD490 was determined. The OD reading of all wells was corrected for background by subtracting the reading of wells containing medium only. […]

Substance | IC50 Human Cervical Cancer Epithelial ME180
munumbicin C | 0.1-0.14 micrograms/ml
munumbicin B | 0.1-0.14 micrograms/ml
